The values that follow come from patent JP2016182135A.

In this test the target is ヒトHER2受容体 (human) (UniProt P04626). In words: binding confirmed; method not told there.

No constants are given. Whether binding was seen depends on the method and setting. Some binding calls cover weakened binding; strength is not graded here.

B1: 抗体4518 (antibody, V domains shown)
VH: EVQLQQSGADLVKPGASVKLSCTTSGFNIKDIFIHWVKERPEQGLEWIGRIDPANDNPKYDPKFQGKATISADTSSNTAYLRLSSLTSEDTAVYYCAGGPAYFDYWGQGTTLTVS
VL: DIVMTQSHKFMSTSVGDRVSISCKASQDVIAAVTWYQQKPGQSPKLLIYWASTRHTGVPDRFTGSGSGTDYTLTISSMQAEDLALYYCQQHYSTPWTFGGGTKLEIKR
In the case of B1, the binding entry was “binds”.

B2: 抗体4385 (antibody, V domains shown)
VH: QVTLKESGAELMKPGASVKLSCKATGYTFTGYWIEWVKQRPGHGLEWIGEILPGSGSTNYNEKFKGEATFTADTSSNTAYMHLSSLTTEDSAIYYCARWGDGSFAYWGQGTLVTVS
VL: DIVMTQSQKFMSTSVGDRVSITCKASQNVGTAVSWYQQKPGQSPKLLIFSTSNRYTGVPDRFTGSGSGTDFTLTISNMQSEDLADYFCQQYRSYPFTFGSGTKLEIKR
Take B2: the binding result is listed as “binds”.
